No constants are given. Whether binding was seen depends on the method and setting. Binding seen in cells or lysates may run through a third protein. Some results given as binding are weak or reduced against the parent protein; the word gives no strength.
Target: EGFP-U1 70K (UniProt P08621)
Assay: FRET or BRET; FLIM-FRET in living cells at 37°C; EGFP fusion as donor, mCherry fusion as acceptor; two-photon excitation at 890 nm; FRET efficiency = 1 - (tauDA/tauD), tauD from cells with mCherry-C1; control cells and TSA-treated cells

Sequences of proteins named here, by UniProt entry; tags and fusion partners are left off.
UniProt P08621: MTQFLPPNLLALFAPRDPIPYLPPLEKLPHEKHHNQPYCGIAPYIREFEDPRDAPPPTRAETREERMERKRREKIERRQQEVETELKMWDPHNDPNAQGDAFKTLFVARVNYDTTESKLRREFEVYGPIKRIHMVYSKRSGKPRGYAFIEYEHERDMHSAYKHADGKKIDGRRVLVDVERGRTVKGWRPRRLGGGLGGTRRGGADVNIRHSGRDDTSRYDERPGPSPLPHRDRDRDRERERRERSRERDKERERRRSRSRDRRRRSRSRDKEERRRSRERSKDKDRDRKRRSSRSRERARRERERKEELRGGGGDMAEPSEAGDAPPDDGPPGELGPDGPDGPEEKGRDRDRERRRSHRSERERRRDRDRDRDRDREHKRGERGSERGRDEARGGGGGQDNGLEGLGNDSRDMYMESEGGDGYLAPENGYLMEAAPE
UniProt Q07955: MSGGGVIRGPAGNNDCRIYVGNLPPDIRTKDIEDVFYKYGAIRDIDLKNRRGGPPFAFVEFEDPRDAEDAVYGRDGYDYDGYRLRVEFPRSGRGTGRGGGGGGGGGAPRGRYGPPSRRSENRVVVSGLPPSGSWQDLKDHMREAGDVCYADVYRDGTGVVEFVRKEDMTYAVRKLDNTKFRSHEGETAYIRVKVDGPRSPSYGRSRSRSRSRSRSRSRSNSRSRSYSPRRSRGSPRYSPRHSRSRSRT

binding: binds
Substance: mCherry-SRSF1 (from UniProt Q07955 1-248)
